Test results as given in patent US20030215897A1.
No constants are given. Whether binding was seen depends on the method and setting. Some entries that bind do so weakly or less than the wild type.

Molecular target: T1, NorpA peptide co-crystallized with a PDZ1 domain (G-L-T-E-F-C-A) (Drosophila)
T1 sequence (peptide): GLTEFCA
Assay: crystal structure (coordinates in Table 2)

- binding: binds
Substance: PDZ1 domain polypeptide of InaD as in the crystal structure of Table 2 (from UniProt Q24008 17-106)
